This passage reports log2 fold change results from the supplement of paper PMC10849652.

Protein sequences, listed by entry. Tags and fused reporters are not part of them. Lines headed by an entry give the natural chain unless they say otherwise; changes in a name come on top.
UniProt Q7RTV0, whole entry, looked up: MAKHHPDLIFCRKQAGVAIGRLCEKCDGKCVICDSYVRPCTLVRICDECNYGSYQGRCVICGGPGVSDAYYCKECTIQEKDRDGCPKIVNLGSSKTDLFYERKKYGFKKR
UniProt Q8TCG2: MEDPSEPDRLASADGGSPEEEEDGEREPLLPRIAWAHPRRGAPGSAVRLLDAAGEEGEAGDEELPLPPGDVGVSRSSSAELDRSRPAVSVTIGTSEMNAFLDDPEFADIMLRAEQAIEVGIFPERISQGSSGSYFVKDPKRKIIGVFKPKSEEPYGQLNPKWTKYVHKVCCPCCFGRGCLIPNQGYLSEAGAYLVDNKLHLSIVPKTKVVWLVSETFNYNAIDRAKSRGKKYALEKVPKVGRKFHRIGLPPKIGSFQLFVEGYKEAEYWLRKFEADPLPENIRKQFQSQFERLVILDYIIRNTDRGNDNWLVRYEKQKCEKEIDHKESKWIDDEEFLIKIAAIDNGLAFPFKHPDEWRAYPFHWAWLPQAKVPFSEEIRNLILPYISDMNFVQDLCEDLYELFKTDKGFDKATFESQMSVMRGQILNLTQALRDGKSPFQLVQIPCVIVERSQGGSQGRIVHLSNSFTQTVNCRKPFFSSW
UniProt P46019: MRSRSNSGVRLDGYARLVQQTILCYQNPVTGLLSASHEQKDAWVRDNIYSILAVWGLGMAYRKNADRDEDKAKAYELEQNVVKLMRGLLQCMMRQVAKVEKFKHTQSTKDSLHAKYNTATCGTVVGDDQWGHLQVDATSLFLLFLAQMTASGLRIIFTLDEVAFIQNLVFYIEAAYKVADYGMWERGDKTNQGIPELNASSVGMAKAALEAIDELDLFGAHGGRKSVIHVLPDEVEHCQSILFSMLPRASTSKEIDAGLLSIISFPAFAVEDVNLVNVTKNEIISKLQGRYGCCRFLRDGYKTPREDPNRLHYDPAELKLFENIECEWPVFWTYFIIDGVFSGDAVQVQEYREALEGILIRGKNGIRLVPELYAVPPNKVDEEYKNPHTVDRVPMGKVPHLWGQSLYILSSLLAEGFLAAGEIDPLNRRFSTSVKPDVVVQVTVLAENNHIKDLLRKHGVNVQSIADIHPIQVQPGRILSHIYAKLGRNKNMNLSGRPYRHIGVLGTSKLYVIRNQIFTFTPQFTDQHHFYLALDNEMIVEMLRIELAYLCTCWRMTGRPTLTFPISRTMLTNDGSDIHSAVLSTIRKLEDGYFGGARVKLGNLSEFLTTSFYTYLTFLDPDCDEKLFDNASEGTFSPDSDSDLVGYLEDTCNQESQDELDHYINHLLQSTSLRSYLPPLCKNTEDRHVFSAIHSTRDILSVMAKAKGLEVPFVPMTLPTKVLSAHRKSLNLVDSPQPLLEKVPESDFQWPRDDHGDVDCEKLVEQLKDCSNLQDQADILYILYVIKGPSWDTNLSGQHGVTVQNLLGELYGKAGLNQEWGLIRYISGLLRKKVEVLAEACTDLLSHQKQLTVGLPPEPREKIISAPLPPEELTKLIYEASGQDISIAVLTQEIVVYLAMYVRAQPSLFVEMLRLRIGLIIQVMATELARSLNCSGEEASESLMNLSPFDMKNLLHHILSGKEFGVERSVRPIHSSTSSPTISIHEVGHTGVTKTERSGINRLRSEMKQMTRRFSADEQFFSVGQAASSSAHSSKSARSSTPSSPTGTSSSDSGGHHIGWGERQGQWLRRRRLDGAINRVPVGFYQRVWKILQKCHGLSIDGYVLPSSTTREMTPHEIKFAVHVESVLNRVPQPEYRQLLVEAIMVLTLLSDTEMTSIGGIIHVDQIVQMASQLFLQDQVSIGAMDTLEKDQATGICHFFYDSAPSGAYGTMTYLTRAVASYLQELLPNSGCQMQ
UniProt Q6P4A8: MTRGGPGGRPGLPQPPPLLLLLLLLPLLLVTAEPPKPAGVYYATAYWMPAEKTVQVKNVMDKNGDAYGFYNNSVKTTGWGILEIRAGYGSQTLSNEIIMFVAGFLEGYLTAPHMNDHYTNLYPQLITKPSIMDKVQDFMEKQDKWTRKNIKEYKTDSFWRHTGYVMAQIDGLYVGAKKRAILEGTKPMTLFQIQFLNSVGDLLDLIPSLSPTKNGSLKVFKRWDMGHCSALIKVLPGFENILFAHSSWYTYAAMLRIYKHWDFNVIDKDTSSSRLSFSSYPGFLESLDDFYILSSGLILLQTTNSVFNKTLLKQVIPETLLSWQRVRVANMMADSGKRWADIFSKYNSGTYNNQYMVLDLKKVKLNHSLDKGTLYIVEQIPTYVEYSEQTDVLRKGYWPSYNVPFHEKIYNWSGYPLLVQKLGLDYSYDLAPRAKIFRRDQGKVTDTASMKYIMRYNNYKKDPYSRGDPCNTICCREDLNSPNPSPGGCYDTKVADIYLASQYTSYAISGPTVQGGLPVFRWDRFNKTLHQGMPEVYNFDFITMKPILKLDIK
UniProt O60331: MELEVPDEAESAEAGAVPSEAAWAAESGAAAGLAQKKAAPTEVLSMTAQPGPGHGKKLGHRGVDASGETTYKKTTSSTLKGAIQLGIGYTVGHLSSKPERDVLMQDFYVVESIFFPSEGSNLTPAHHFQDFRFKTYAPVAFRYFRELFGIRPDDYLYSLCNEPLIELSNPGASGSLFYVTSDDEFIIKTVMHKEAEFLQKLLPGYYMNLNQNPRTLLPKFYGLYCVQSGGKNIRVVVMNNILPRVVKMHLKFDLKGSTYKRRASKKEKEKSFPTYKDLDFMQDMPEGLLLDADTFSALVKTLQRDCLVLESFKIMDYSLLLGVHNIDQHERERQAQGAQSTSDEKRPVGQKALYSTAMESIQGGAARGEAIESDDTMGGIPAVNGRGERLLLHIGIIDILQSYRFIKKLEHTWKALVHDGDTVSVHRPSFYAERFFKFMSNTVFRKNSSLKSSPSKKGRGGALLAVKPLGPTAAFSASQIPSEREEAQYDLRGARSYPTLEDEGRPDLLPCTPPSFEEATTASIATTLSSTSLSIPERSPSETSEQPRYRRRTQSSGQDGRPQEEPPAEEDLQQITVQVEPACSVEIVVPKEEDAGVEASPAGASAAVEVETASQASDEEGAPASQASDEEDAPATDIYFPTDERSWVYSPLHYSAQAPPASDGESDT
UniProt O60925, whole entry, looked up: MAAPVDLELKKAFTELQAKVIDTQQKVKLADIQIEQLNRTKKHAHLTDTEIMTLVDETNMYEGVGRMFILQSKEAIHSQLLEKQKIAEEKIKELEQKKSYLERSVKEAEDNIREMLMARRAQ
UniProt P15735: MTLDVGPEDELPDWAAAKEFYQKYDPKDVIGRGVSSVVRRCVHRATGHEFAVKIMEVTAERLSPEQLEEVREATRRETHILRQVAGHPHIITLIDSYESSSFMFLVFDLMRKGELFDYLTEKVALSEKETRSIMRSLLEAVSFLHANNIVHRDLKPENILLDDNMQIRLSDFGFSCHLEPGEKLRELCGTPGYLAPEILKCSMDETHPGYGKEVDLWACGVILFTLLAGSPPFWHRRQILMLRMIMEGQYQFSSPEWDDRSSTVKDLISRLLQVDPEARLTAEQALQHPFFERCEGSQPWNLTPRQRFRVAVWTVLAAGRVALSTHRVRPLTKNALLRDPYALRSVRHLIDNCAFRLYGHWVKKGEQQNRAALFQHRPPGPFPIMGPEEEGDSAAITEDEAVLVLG
UniProt Q32M88: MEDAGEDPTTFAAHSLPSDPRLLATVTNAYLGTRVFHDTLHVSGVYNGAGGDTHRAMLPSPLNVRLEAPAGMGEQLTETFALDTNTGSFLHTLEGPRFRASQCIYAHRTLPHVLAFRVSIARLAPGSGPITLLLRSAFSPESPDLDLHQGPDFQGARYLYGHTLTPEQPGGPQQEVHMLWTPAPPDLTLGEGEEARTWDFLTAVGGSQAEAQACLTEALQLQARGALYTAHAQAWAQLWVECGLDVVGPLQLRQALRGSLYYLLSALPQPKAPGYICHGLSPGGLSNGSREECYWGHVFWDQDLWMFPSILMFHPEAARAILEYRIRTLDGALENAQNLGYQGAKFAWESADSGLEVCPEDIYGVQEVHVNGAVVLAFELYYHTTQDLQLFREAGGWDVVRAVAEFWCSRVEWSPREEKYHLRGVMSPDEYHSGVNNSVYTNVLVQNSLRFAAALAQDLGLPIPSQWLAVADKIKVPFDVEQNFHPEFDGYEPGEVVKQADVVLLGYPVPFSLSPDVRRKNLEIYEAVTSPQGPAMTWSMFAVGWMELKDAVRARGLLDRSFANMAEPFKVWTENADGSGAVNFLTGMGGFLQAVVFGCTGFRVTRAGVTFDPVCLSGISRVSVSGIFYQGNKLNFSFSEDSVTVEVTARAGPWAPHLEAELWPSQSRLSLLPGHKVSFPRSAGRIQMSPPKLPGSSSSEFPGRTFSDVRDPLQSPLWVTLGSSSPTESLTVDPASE
UniProt Q5JRX3: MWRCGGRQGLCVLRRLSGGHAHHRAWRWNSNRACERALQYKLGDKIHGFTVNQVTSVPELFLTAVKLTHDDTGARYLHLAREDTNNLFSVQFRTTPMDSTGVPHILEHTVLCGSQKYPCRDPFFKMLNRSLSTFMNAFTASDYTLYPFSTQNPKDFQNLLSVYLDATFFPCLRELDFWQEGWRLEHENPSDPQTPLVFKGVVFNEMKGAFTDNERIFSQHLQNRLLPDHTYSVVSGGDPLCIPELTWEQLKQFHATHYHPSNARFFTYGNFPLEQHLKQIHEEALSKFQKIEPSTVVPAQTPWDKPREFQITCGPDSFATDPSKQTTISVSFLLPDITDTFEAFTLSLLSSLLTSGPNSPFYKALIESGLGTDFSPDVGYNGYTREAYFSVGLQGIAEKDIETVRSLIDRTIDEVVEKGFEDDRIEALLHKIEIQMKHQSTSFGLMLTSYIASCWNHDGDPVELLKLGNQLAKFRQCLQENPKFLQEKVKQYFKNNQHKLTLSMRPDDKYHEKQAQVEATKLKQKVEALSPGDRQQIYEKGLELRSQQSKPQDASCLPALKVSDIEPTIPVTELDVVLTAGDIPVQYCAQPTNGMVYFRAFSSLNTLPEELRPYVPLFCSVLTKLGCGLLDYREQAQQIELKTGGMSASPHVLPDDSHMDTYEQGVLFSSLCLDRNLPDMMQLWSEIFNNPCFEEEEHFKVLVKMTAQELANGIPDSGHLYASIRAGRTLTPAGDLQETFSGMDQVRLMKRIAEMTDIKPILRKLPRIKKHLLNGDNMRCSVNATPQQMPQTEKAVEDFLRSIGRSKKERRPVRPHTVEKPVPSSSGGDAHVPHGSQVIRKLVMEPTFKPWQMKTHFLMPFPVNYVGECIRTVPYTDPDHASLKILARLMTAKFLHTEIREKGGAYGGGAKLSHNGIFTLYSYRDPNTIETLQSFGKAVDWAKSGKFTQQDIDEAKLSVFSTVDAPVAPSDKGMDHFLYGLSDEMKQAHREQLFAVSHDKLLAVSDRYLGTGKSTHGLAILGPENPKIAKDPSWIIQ
UniProt Q01970, whole entry, looked up: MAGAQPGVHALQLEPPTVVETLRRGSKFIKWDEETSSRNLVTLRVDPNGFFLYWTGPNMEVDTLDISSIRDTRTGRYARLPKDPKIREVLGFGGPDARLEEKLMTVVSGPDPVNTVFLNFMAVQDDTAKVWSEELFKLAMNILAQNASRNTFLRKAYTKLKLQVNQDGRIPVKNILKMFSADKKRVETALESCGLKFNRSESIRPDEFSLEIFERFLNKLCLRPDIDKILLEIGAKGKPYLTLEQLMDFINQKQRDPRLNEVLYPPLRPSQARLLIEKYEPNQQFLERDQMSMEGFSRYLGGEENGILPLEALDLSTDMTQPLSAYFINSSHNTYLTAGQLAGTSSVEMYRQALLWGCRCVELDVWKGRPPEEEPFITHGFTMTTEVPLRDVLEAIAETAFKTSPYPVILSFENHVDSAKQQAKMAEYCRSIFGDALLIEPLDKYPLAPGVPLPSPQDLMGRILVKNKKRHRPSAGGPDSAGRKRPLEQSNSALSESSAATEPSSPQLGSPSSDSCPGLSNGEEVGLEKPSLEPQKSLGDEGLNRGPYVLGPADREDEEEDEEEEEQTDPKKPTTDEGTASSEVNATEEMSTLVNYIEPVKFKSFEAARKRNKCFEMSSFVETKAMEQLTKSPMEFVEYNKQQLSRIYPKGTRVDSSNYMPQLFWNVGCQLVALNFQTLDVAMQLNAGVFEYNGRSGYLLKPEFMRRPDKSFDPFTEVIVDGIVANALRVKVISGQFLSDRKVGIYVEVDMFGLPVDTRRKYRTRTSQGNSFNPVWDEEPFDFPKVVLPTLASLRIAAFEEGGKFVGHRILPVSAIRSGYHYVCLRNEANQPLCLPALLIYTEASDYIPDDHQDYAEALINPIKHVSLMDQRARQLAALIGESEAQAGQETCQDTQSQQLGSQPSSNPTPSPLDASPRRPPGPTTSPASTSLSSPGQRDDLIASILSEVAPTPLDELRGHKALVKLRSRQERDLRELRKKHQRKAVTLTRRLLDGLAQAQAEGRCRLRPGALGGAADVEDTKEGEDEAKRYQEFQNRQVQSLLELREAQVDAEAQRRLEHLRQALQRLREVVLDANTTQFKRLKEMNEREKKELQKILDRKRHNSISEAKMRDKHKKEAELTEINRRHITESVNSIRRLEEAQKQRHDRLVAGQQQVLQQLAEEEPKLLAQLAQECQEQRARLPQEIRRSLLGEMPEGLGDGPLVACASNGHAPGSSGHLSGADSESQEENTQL

This is one part of the list.

Compound in this assay: CN1CCc2c(c3ccccc3n2Cc2ccc(C(=O)NO)cc2)C1 [Tubastatin A]
Put plainly: log2 fold change, soluble protein after heating vs DMSO (PISA); higher = thermal stabilisation; K562 cells, 10 uM, 30 min; active = over 0.2 and 3.5 SD of the protein, either way, in both replicates (recomputed). The method, boiled down:
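K562 cells at 2×10^6 cells/mL were exposed to 10 μM compound for 30 min, then aliquots were heated for 3 min across 48°C-58°C, pooled, and extracted in PBS containing 0.5% NP-40 at 4°C. The supernatant after 21,000xg for 90 min was taken as soluble protein and measured by TMTpro 16plex LC-MS/MS with channel sums equalised. Thermal stability is reported relative to control samples, with values from duplicates. Fold changes are given on a log2 scale.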
As for PLD3 (UniProt Q8IV08), the log2 fold change is inactive: 0.004.
For PHF5A (UniProt Q7RTV0) the value was inactive: -0.027; for PLA2G15 (UniProt Q8NCC3), inactive: 0.036.
For the target PIGT (UniProt Q969N2), the log2 fold change was inactive: -0.052.
Under PISD (UniProt Q9UG56) stands inactive: 0.019; under PIK3C3 (UniProt Q8NEB9), inactive: 0.027; under PHF19 isoform 2 (UniProt Q5T6S3), inactive: 0.003.
In the case of PKM (UniProt P14618), the log2 fold change is inactive: -0.004.
For PIP4K2C (UniProt Q8TBX8), the log2 fold change is inactive: 0.133.
PEX5 isoform 4 (UniProt P50542): the log2 fold change is inactive: 0.077.
Consider PIK3R1 (UniProt P27986), for which the log2 fold change is inactive: -0.017.
As to PEX7 (UniProt O00628), the log2 fold change was inactive: 0.061.
Consider PIP4K2A (UniProt P48426), for which the log2 fold change was inactive: -0.001.
In the case of PHKA1 (UniProt P46020), the log2 fold change was inactive: -0.256.
On to PJA2 (UniProt O43164), for which the log2 fold change was inactive: 0.061.
Regarding PIKFYVE (UniProt Q9Y2I7), the log2 fold change is inactive: -0.032.
In the case of PI4K2B (UniProt Q8TCG2), the log2 fold change is inactive: 0.028.
On to PLCG1 isoform 2 (UniProt P19174), for which the log2 fold change was inactive: 0.1.
Regarding PGGT1B (UniProt P53609), the log2 fold change was inactive: -0.047.
Regarding PIR (UniProt O00625), the log2 fold change was active: -0.284.
On to PHYKPL (UniProt Q8IUZ5), for which the log2 fold change is inactive: -0.101.
For PHKA2 (UniProt P46019), the log2 fold change was inactive: -0.021.
For PIP4K2B (UniProt P78356), the log2 fold change is inactive: 0.022.
For PLBD1 (UniProt Q6P4A8), the log2 fold change is inactive: -0.013.
Take PIP5K1C isoform 3 (UniProt O60331): the log2 fold change is inactive: 0.143.
PLBD2 (UniProt Q8NHP8): the log2 fold change was inactive: 0.01.
As to PFDN1 (UniProt O60925), the log2 fold change was inactive: 0.022.
For PHKG2 (UniProt P15735) the value was inactive: 0.029; for PIP4P1 isoform 2 (UniProt Q86T03), inactive: -0.005.
PGM3 isoform 4 (UniProt O95394): the log2 fold change is inactive: 0.03.
As to PGGHG (UniProt Q32M88), the log2 fold change was inactive: 0.04.
Regarding PIK3CB (UniProt P42338), the log2 fold change was inactive: 0.001.
For PITRM1 isoform 2 (UniProt Q5JRX3), the log2 fold change was inactive: 0.009.
In the case of PKN1 isoform 2 (UniProt Q16512), the log2 fold change was inactive: 0.026.
Under PIGG (UniProt Q5H8A4) stands inactive: -0.037; under PFAS (UniProt O15067), inactive: 0.046; under PHAX (UniProt Q9H814), inactive: 0.003.
For PIGW (UniProt Q7Z7B1), the log2 fold change is inactive: -0.027.
On to PLCB3 (UniProt Q01970), for which the log2 fold change was inactive: -0.027.
Under PIP4P2 (UniProt Q8N4L2) stands inactive: 0.072.
